Experimental data: article PMC11315126

Target: T1, His6TraW (E. coli F plasmid) (UniProt P18472)
T1 sequence: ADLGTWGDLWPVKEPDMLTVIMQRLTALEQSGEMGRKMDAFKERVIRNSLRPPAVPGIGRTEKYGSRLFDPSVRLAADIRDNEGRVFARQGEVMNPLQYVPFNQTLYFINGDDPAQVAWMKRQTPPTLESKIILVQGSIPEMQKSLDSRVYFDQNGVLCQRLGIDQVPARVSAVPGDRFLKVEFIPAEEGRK
Experiment: SEC; analytical UPLC, Zenix SEC-150, 1.0 mL/min, proteins at 19 μM in 20 mM HEPES pH 7.5, 150 mM NaCl, with 2 mM DTT; mixture kept on ice for 30 min; both purified

Substance: TrbB_(37-161) (E. coli F plasmid) (domain or fragment)
- binding: no binding (tested: 19 μM)

Results are given in words; binding and its absence hold for the method and conditions named. Where a sequence is shown, tags or fusion partners need not be part of it.
